{
  "source": "the supplement of paper PMC10338343",
  "note": "± gives the standard deviation. This is a selection; strong and weak results do not stand in their true shares. Many of these values have a large error.",
  "data": [
    {"tested_on": "MILI (PIWIL2) piRISC loaded with L1MC piRNA (26 nt)", "assay": "pre-steady-state target cleavage rate (min^-1); higher = faster piRNA-guided slicing of the target", "conditions": "guide: L1MC piRNA 5'p-UAACUAAAUACUAUGCAAGCUGUAGG; auxiliary factor: 500 nM mouse GTSF1", "procedure": "(§1)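 Cleave-'n-Seq: a library of target RNAs (target site embedded in constant flanks, ACAGCATTCCGCGTTAGTGATATCCG... 5' flank; DNA-blocked outside the site) at 0.1 nM was incubated with 1 nM active mouse MILI or MIWI piRISC (synthetic 5'-monophosphorylated piRNA guide) with or without 500 nM mouse GTSF1 at 33 °C for 1 min to 16 h. Uncleaved targets were sequenced and normalised to non-target controls, and the pooled three trials were fitted to a burst-and-steady-state model to give the pre-steady-state cleavage rate (min^-1; k3 is constrained to at most 1e-4). Sequence is the target site only; target names encode pairing extent (gX:gY) and contiguous / 1-mismatch / 2-mismatch / bulge geometry. Fits with R² ≤ 0 are excluded.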", "values": [
      {"sequence": "UCCUCCUACAGCUUGCAUAGUAUUUACUAA", "pre-steady-state target cleavage rate": "0.114 ± 0.027"},
      {"sequence": "UCCUGCUACAGCUAGGAUAGUAUUUAGUUA", "pre-steady-state target cleavage rate": "0.259 ± 0.015"},
      {"sequence": "UCCUGGAUGUCGAAGCAAAGUAUUAAGUUA", "pre-steady-state target cleavage rate": "0.000604 ± 0.012"},
      {"sequence": "UCCUGGAACAGCUAGCAAAGUAUUUAGUUA", "pre-steady-state target cleavage rate": "0.11 ± 0.013"},
      {"sequence": "UCCUGGAACAGCUUGCAUAGUAAUUAGUAA", "pre-steady-state target cleavage rate": "0.108 ± 0.015"},
      {"sequence": "UCCUCCUAGCAGCUUGCAUAGUAUUUAGUUA", "pre-steady-state target cleavage rate": "0.295 ± 0.018"},
      {"sequence": "UCCUGGAACAGGUUGCAUAGAAUUUAGUUA", "pre-steady-state target cleavage rate": "0.0524 ± 0.011"},
      {"sequence": "UCCUGGAUCAGCUUGCUAUGUAUUUAGUUA", "pre-steady-state target cleavage rate": "0.0176 ± 0.0068"},
      {"sequence": "UCCUGGAUCAGCUUGCUUAGUAUUUUGUUA", "pre-steady-state target cleavage rate": "0.16 ± 0.015"},
      {"sequence": "UCCUGGAACAGGUUGCAUAGUAUUUACUUA", "pre-steady-state target cleavage rate": "0.0532 ± 0.012"},
      {"sequence": "UCCUGGAUGUGCUUGCAUUCAAUUUAGUUA", "pre-steady-state target cleavage rate": "0.00164 ± 0.0063"},
      {"sequence": "UCCUGGUACAGCAUGCAUAGUUUUUAGUUA", "pre-steady-state target cleavage rate": "0.038 ± 0.015"},
      {"sequence": "UCCUGGUACAGCUUGCAAAGUAUUUACAAA", "pre-steady-state target cleavage rate": "0.0115 ± 0.0055"}
    ]},
    {"tested_on": "MILI (PIWIL2) piRISC loaded with L1MC piRNA (26 nt)", "assay": "pre-steady-state target cleavage rate (min^-1); MIWI and MILI are mouse PIWI proteins and EfPiwi is from a freshwater sponge; tags in brackets are library labels; higher = faster piRNA-guided slicing of the target", "conditions": "guide: L1MC piRNA 5'p-UAACUAAAUACUAUGCAAGCUGUAGG; auxiliary factor: none (no GTSF1)", "procedure": "as §1", "values": [
      {"sequence": "UCCUCCUACAGCUUGCAUAGUAUUUACUAA", "pre-steady-state target cleavage rate": "0.00139 ± 0.0043"},
      {"sequence": "UCCUGGAUGAGCUUGCAUAGUAUUAUCUAA", "pre-steady-state target cleavage rate": "0.000175 ± 0.016"},
      {"sequence": "UCCUGGAUGUCGAUGCAUAGUAUUUGUUA", "pre-steady-state target cleavage rate": "0.000245 ± 0.021"},
      {"sequence": "UCCUGGUACAGCUUGCAUAGUAAAUAGAAA", "pre-steady-state target cleavage rate": "0.000907 ± 0.0069"},
      {"sequence": "UCCUGCUACAGCAUCCAUAGUAUUUAGUUA", "pre-steady-state target cleavage rate": "0.00196 ± 0.0049"},
      {"sequence": "UCCUGCUACAGCUAGGAUAGUAUUUAGUUA", "pre-steady-state target cleavage rate": "0.00677 ± 0.0024"},
      {"sequence": "UCCUGGAUGUCGAAGCAAAGUAUUAAGUUA", "pre-steady-state target cleavage rate": "0.000462 ± 0.012"},
      {"sequence": "UCCUGGAACAGCUAGCAAAGUAUUUAGUUA", "pre-steady-state target cleavage rate": "0.00729 ± 0.002"},
      {"sequence": "UCCUGCUACAGCUUCCAUAGUAUUUAGAAA", "pre-steady-state target cleavage rate": "0.000578 ± 0.0079"},
      {"sequence": "UCCUCCUACACCUUCCAUAGUAUUUAGUUA", "pre-steady-state target cleavage rate": "0.000829 ± 0.0062"},
      {"sequence": "UCCUGCUACAGCUUGCAUAGUUAUUUCAAA", "pre-steady-state target cleavage rate": "0.000728 ± 0.0078"},
      {"sequence": "UCCUGGAACAGCUUGCAUAGUAAUUAGUAA", "pre-steady-state target cleavage rate": "0.0019 ± 0.0034"},
      {"sequence": "UCCUGGAUGUCGUUCCAUAGAAUUUAGUUA", "pre-steady-state target cleavage rate": "0.000443 ± 0.012"},
      {"sequence": "UCCUGGAUCAGCUUGCAUAGAUAUUACAAA", "pre-steady-state target cleavage rate": "0.000474 ± 0.0086"},
      {"sequence": "UCCUGCUACAGCUUGCUUAGUAUUUACUUA", "pre-steady-state target cleavage rate": "0.00178 ± 0.0038"},
      {"sequence": "UCCUGGAACAGCUUGCAUAGAAAUUAGUUA", "pre-steady-state target cleavage rate": "0.00187 ± 0.0028"},
      {"sequence": "UCCUGCUACAGCUUGCAUUGUAUUUUCAAA", "pre-steady-state target cleavage rate": "0.00101 ± 0.0047"},
      {"sequence": "UCCUGGAACAGGUUGCAUAGAAUUUAGUUA", "pre-steady-state target cleavage rate": "0.0038 ± 0.002"},
      {"sequence": "UCCUGGAUCAGCUUGCAUUGUAUUUUCAAA", "pre-steady-state target cleavage rate": "0.000788 ± 0.0057"},
      {"sequence": "UCCUGGAACAGCUUGCAAAGUAUUUUCAAA", "pre-steady-state target cleavage rate": "0.000827 ± 0.0067"},
      {"sequence": "UCCUCCUACAGCUUGCAUAGAAUUUUGUUA", "pre-steady-state target cleavage rate": "0.00146 ± 0.0037"},
      {"sequence": "UCCUGGAUCAGCUUGCUAUGUAUUUAGUUA", "pre-steady-state target cleavage rate": "0.00553 ± 0.0022"},
      {"sequence": "UCCUGGAUCAGCUUGCUUAGUAUUUUGUUA", "pre-steady-state target cleavage rate": "0.00583 ± 0.0022"},
      {"sequence": "UCCUGGAACAGGUUGCAUAGUAUUUACUUA", "pre-steady-state target cleavage rate": "0.00203 ± 0.0036"},
      {"sequence": "UCCUGGAUGUGCUUGCAUUCAAUUUAGUUA", "pre-steady-state target cleavage rate": "0.00224 ± 0.0028"},
      {"sequence": "UCCUGGUACAGCAUGCAUAGUUUUUAGUUA", "pre-steady-state target cleavage rate": "0.00749 ± 0.0033"},
      {"sequence": "UCCUGGAUGAGCUUGCAUAGAAUUAAGUUA", "pre-steady-state target cleavage rate": "0.00118 ± 0.005"},
      {"sequence": "UCCUGGUACAGCUUGCAAAGUAUUUACAAA", "pre-steady-state target cleavage rate": "0.0009 ± 0.0078"}
    ]}
  ]
}
